# Measurements reported in PubChem BioAssay AID1259405 (NCATS, 2018)
# Assay: 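Knock-downs that lift recombinant protein yield in hamster ovary cells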 (primary screen)
# System: Chinese hamster CHO-K1 ovary cells with stable secreted eGFP expression
# Reagents: single siRNA against mouse genes, 0.8 pmol siRNA per well (2 µl of 400 nM stock)
# Duration: 3 days
# Measurement: 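Percent of the per-plate non-targeting control median for intracellular GFP per well by laser scanning cytometry and for cell viability by ATP luminescence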
# Direction: GFP, % of control: higher = more GFP per well, higher productivity; viability (ATP), % of control: higher = more viable cells (more ATP)
# Hit rule: 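Called active when intracellular GFP, relative to negative control, is at or above 120%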
# Here is a random part of about 50,000 deposited reagents. About 4,000 of all reagents (8%) were called active. 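Mouse siRNA library applied to hamster cells; one well for each siRNA.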 The numbers tell different reagents against one gene apart.
Target gene,siRNA no.,"GFP, % of control","viability (ATP), % of control",call
Lynx1,1,92.8,82.2,inactive
Lynx1,2,125,86.7,active
Lynx1,3,84.7,101,inactive
Golga4,1,56.5,61.9,inactive
Golga4,2,91.7,83.1,inactive
Golga4,3,57.6,66.2,inactive
Or52h1,1,147,99.3,active
Or52h1,2,63.5,85.5,inactive
Or52h1,3,28.8,64.2,inactive
Acta2,1,56.5,45.4,inactive
Acta2,2,67,102,inactive
Rcan1,1,53.9,55.5,inactive
Rcan1,2,65.2,47.5,inactive
Rcan1,3,74.3,84.5,inactive
Or56b2j,1,46.9,69,inactive
Or56b2j,2,88.1,75.1,inactive
Or56b2j,3,127,82.5,active
Klra17,1,58.7,81,inactive
Klra17,2,84.3,70.5,inactive
Klra17,3,127,79.7,active
St7l,1,93.2,68.8,inactive
St7l,2,70.2,100,inactive
St7l,3,95.4,79.6,inactive
Cilp,1,138,159,active
Cilp,2,93.6,64.3,inactive
Dennd6b,1,86.6,67.9,inactive
Dennd6b,2,46.5,44.7,inactive
Dennd6b,3,107,70.7,inactive

Hits, of those listed so far:
Target gene,siRNA no.,"GFP, % of control","viability (ATP), % of control",call
Lynx1,2,125,86.7,active
Or52h1,1,147,99.3,active
Or56b2j,3,127,82.5,active
Klra17,3,127,79.7,active
Cilp,1,138,159,active

The listing continues:
Target gene,siRNA no.,"GFP, % of control","viability (ATP), % of control",call
Bmp8a,1,81.3,50.6,inactive
Bmp8a,2,44.6,64.6,inactive
Bmp8a,3,77.9,70.5,inactive
Nbeal1,1,76.9,92.2,inactive
Nbeal1,2,104,77.5,inactive
Nbeal1,3,91.9,81.2,inactive
Msi1,1,43.3,64.9,inactive
Msi1,2,83.2,60.4,inactive
Msi1,3,69.8,75.1,inactive
Mtnr1b,1,55.3,73.9,inactive
Mtnr1b,2,59.4,72.7,inactive
Mtnr1b,3,112,68.9,inactive
Nasp,1,54.8,55.5,inactive
Nasp,2,107,102,inactive
Nasp,3,56.4,66.2,inactive
Slc32a1,1,44.3,69.7,inactive
Slc32a1,2,87.1,94.7,inactive
Slc32a1,3,92.7,78.9,inactive
Rundc3a,1,101,80.9,inactive
Rundc3a,2,96.3,90.9,inactive
Rundc3a,3,26,21.4,inactive
Papolb,1,110,120,inactive
Papolb,2,84.4,76.7,inactive
Pi16,1,82.2,63.5,inactive
Pi16,2,116,45.6,inactive
Pi16,3,84,91,inactive
Esyt3,1,101,87.6,inactive
Esyt3,2,48.2,45,inactive
Esyt3,3,112,102,inactive
